Experiment [1] deals with RELA (endogenous) (human (endogenous in HEK 293T-LTR-GFP)) (UniProt Q04206). Kind of experiment: co-IP; RNA-free IP: cell extracts pre-treated with RNAse A before IP.
For experiment [2] the target is unchanged. Kind of experiment: co-IP; 293T-LTR-GFP (HEK) cells transfected with pSG5M-Tax-WT or pSG5M-M22, harvested 48 h after transfection (also M22-expressing cells exposed to TNFα, 10 ng/ml, 24 h); IP lysis buffer 20 mM Tris-HCl pH 7.5, 150 mM NaCl, 2 mM EDTA, 1% NP-40, 10% glycerol; extracts incubated overnight with 5 µg anti-DDX17, anti-Tax or anti-RELA and Dynabeads Protein A/G; immunoblot. A general note: A western blot detects proteins with antibodies after separation by electrophoresis.

Protein sequences, listed by entry. Tags and fused reporters are not part of them.
UniProt Q04206: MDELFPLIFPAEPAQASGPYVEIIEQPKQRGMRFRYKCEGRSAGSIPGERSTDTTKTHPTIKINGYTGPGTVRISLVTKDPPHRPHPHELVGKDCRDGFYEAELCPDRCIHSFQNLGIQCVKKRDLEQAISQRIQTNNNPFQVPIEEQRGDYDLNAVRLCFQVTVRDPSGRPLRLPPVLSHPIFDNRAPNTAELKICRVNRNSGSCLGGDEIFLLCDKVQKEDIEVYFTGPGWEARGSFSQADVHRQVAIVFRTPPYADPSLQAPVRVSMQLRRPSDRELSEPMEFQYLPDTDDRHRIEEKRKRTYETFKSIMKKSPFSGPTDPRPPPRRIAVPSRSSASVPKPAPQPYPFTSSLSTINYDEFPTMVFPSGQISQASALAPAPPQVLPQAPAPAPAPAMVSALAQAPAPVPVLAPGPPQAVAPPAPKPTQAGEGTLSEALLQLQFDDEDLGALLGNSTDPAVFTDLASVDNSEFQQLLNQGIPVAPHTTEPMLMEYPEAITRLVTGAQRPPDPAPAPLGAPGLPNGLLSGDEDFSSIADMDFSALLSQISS
UniProt Q92841: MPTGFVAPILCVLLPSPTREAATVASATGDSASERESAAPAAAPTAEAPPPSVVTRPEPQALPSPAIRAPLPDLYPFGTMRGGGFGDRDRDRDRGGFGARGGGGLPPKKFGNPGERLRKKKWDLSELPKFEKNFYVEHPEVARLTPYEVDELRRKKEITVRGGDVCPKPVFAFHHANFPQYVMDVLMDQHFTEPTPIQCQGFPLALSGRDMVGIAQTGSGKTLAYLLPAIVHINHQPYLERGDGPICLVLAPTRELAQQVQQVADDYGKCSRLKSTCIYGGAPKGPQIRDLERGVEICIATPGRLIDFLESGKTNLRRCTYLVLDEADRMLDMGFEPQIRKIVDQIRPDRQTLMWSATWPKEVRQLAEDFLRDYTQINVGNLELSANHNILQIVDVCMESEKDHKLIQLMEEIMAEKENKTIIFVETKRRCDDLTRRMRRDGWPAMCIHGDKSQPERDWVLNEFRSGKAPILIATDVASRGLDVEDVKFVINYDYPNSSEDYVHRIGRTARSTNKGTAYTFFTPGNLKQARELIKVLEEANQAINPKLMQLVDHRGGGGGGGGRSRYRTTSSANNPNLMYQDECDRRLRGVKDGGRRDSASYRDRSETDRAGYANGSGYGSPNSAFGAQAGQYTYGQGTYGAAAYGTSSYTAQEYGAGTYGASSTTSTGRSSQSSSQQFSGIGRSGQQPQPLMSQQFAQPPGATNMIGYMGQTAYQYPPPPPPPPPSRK

Experiment [3] has as its target Tax of HTLV-1 (wild type) (HTLV-1) (UniProt P03409). The experiment is described as above.
For experiment [4], the target named is DDX17 (endogenous, isoforms p72 and p82) (human (endogenous in HEK 293T-LTR-GFP)) (UniProt Q92841). The experiment is described as above.

These are yes or no findings as the source states them, for the method shown. In cells and extracts the contact can be indirect. Some entries that bind do so weakly or less than the wild type.

As for “DDX17 (endogenous, isoforms p72 and p82) (from UniProt Q92841 1-729)”, the binding entry in experiment [1], in experiment [2] and in experiment [3] was “binds” each time.

On to “RELA (endogenous) (from UniProt Q04206 1-551)”, for which the binding result in experiment [4] and in experiment [3] was “binds” throughout.

Take “Tax of HTLV-1 (wild type) (from UniProt P03409 1-353)”: the binding result in experiment [4] was “binds”.

Values taken from PMC7298006.
